Some of the results follow.
Compound: Cc1cc(ccc1-c1ccccc1)C(=O)N1CCCN(CC1)C(=O)CCl [compound 10]
Assay: probe-labelled cysteine peptide fold change vs DMSO (competition) (log2 fold change); higher = less target engagement (more negative = stronger competition)
Conditions: THP-1, incubation time: 4 h
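Also: competitive profiling in live THP-1 cells: cysteine peptides tagged with an iodoacetamide desthiobiotin (IA-DTB) probe, intensity after compound treatment relative to DMSO-treated cells.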

The chains behind the UniProt entries cited, without tags or fusion partners. Where a name states a change or a piece, a line headed by the entry shows the natural chain unless it says otherwise.
UniProt Q6PI47: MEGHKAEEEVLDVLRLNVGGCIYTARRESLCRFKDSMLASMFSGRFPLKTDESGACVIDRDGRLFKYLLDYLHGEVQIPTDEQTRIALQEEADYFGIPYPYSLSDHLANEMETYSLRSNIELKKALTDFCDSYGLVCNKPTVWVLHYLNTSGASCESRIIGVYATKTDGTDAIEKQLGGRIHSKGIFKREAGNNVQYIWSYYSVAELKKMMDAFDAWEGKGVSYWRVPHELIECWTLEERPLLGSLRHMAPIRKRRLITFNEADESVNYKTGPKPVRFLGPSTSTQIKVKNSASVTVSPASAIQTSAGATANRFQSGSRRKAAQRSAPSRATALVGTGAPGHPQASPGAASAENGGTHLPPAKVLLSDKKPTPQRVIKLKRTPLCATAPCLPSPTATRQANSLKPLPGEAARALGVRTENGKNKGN
UniProt P26440: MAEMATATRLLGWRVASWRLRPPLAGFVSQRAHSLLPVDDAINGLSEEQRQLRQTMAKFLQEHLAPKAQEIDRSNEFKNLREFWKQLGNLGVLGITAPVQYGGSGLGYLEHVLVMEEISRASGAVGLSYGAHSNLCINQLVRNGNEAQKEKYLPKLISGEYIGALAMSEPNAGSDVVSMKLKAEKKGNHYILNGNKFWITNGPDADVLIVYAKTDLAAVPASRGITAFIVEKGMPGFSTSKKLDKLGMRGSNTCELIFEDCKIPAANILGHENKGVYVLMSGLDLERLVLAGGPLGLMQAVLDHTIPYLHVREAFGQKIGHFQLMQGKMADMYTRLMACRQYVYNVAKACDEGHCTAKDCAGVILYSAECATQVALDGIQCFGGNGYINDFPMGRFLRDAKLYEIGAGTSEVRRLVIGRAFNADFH
UniProt Q15046, whole entry, looked up: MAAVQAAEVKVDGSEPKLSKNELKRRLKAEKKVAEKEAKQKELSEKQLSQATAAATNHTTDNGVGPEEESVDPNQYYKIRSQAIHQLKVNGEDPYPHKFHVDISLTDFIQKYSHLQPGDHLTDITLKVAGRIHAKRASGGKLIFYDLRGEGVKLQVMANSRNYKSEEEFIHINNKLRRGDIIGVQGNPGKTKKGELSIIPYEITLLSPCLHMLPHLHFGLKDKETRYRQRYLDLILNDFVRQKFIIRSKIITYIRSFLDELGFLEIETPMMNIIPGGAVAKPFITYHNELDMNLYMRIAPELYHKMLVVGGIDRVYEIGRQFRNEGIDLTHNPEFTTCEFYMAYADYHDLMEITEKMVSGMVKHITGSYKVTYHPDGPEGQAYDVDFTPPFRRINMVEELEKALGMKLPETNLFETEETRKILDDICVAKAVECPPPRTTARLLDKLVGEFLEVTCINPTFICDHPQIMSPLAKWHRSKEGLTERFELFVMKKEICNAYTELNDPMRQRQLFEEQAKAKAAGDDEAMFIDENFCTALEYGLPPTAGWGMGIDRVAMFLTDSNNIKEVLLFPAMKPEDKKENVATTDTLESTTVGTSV
UniProt O95235: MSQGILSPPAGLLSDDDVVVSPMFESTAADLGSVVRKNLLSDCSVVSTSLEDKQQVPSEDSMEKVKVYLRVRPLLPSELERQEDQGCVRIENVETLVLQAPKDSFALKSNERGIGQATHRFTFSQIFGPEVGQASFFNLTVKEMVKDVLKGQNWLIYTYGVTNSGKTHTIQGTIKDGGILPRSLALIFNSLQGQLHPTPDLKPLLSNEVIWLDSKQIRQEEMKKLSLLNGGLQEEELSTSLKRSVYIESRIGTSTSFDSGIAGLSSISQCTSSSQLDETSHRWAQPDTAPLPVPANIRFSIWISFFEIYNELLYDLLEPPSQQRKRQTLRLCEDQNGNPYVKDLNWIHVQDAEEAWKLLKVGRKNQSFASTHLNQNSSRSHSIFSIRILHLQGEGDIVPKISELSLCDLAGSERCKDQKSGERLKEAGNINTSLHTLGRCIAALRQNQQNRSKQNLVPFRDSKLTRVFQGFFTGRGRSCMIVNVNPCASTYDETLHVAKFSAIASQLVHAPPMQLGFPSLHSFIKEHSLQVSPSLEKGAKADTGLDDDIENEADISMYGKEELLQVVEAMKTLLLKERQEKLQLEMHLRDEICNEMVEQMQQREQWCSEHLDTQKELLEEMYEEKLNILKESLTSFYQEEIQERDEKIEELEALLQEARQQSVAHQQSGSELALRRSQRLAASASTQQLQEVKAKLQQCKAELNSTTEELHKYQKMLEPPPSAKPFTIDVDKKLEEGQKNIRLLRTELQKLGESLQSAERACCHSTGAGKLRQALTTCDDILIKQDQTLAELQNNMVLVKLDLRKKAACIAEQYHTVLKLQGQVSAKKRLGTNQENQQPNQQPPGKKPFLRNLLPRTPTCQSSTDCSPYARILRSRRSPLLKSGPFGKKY
UniProt Q7LBC6: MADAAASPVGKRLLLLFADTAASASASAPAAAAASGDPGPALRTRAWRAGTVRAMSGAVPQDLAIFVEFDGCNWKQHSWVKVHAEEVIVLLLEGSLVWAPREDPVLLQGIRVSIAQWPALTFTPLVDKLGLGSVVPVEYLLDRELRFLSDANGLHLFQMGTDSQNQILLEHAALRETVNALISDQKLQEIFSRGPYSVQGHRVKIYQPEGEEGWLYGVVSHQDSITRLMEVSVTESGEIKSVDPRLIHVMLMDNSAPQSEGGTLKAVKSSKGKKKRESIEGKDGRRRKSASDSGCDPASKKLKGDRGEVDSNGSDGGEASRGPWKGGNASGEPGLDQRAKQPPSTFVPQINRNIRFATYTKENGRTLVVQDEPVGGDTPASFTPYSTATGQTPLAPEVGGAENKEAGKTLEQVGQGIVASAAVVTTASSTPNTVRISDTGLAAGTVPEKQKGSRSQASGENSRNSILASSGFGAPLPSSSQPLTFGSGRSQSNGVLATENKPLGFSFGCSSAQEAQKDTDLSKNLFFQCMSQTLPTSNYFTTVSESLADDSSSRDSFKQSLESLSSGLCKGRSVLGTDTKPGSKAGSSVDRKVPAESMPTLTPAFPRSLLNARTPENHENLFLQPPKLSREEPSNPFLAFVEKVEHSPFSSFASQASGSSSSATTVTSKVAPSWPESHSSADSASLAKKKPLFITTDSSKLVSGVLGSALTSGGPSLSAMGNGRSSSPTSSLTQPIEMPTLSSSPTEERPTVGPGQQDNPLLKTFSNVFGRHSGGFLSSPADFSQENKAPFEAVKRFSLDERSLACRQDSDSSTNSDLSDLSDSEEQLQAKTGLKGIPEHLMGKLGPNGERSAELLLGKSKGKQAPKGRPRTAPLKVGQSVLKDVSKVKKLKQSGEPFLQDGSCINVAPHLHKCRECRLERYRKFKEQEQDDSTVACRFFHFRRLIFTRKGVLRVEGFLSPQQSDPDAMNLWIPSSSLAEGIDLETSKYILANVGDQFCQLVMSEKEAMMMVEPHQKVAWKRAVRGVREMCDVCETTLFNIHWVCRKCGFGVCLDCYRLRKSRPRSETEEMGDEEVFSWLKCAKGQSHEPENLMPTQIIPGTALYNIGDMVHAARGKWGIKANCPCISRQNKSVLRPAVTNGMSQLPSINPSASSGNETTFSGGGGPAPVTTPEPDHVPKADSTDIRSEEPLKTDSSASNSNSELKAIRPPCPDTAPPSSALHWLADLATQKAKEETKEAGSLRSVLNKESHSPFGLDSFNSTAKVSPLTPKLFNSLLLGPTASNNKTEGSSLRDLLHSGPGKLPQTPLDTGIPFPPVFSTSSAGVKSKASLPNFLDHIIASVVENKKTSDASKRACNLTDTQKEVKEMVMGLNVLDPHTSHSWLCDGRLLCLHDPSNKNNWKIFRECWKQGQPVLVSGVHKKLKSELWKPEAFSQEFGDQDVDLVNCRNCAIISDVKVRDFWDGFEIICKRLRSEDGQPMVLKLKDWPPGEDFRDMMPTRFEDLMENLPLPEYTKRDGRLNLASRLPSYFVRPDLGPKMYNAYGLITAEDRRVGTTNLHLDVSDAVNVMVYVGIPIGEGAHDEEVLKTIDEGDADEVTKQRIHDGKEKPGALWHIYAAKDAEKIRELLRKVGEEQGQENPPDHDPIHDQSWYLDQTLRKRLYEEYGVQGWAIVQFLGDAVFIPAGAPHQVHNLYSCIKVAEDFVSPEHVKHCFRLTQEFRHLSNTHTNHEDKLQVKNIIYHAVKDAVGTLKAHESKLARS
UniProt Q9Y4C1: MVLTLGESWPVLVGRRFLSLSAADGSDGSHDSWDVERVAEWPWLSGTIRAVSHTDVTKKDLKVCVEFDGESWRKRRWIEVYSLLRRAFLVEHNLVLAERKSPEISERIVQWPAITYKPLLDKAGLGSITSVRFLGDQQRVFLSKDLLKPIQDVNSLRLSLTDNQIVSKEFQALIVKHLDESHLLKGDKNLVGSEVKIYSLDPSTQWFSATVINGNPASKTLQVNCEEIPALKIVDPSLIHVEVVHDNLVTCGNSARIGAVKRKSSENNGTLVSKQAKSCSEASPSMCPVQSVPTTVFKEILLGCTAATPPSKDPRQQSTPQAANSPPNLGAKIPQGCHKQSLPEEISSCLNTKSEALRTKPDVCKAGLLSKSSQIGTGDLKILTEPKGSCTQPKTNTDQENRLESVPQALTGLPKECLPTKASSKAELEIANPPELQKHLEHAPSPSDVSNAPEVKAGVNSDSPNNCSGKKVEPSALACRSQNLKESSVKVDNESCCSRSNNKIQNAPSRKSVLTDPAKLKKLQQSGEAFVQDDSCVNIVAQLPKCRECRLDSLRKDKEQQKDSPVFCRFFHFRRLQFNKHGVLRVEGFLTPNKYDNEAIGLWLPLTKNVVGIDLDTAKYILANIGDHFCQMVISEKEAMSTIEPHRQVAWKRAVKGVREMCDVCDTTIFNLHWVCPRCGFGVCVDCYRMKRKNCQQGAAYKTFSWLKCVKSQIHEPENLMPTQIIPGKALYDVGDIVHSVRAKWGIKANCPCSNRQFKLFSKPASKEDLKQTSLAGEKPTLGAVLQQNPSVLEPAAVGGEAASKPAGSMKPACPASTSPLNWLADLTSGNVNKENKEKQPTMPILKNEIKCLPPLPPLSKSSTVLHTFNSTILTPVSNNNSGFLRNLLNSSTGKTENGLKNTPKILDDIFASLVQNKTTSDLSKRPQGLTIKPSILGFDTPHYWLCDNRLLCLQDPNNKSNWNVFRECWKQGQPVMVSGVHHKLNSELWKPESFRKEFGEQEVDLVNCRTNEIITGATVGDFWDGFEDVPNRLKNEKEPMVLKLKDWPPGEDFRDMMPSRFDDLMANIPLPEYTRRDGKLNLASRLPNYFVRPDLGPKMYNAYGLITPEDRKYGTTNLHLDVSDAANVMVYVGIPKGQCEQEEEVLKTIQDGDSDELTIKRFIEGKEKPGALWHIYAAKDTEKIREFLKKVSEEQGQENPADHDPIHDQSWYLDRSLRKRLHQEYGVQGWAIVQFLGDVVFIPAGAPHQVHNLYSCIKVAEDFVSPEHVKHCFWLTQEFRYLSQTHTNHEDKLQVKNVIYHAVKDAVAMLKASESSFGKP
UniProt Q86Y91: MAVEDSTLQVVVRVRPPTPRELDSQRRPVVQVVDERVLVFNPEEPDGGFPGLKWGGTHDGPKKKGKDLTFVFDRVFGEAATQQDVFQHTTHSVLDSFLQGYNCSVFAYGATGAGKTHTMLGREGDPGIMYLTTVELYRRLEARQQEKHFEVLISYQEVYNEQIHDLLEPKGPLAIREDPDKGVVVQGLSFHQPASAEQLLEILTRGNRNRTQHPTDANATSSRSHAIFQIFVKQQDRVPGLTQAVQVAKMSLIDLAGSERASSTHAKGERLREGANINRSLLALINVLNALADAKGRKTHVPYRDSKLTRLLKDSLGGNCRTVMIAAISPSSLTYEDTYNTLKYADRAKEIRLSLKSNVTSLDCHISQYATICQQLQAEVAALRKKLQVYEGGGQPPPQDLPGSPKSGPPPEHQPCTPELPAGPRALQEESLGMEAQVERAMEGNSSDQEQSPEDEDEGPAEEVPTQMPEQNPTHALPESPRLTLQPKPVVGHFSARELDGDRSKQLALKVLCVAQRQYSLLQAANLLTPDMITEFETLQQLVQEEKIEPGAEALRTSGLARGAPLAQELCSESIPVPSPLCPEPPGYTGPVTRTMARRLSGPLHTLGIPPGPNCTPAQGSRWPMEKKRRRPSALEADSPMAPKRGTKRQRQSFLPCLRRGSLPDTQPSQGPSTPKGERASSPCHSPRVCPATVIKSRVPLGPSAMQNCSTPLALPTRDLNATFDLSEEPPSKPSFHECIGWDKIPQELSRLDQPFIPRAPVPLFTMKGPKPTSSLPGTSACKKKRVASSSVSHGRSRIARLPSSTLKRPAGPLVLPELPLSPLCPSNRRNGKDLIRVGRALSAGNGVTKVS

Row | Target | probe-labelled cysteine peptide fold change (10 µM) | probe-labelled cysteine peptide fold change (50 µM)
1 | ITPR1_Q14643_1394_MDENSPLMYHIHLVELLAVCTEGK (UniProt Q14643) | 0.39 | 0.358
2 | KCTD18_Q6PI47_234_VPHELIECWTLEERPLLGSLR (UniProt Q6PI47) | 0.0969 | 0.0679
3 | KIF15_Q9NS87_1062_ILSEDIERDMLCEDLAHATEQLNMLTEASKK (UniProt Q9NS87) | -0.11 | -0.617
4 | IVD_P26440_350+355_ACDEGHCTAK (UniProt P26440) | 0.415 | -0.227
5 | KARS_Q15046_427_ILDDICVAK (UniProt Q15046) | -0.149 | -0.135
6 | KCTD18_Q6PI47_56_TDESGACVIDR (UniProt Q6PI47) | 0.0105 | 0.314
7 | ITPR1_Q14643_326_HLATGHYLAAEVDPDFEEECLEFQPSVDPDQDASR (UniProt Q14643) | -0.321 | 0.0228
8 | KIF20A_O95235_487_SCMIVNVNPCASTYDETLHVAK (UniProt O95235) | 0.182 | 0.175
9 | KDM3B_Q7LBC6_295_SASDSGCDPASKK (UniProt Q7LBC6) | -0.136 | -0.93
10 | IVD_P26440_261_GSNTCELIFEDCKIPAANILGHENK (UniProt P26440) | 0.0089 | -0.169
11 | KDM3A_Q9Y4C1_251_IVDPSLIHVEVVHDNLVTCGNSAR (UniProt Q9Y4C1) | -0.332 | -0.746
12 | KDM2B_Q8NHM5_651_QCIAPVLPHTAVCLVCGEAGKEDTVEEEEGK (UniProt Q8NHM5) | -0.144 | -0.255
13 | KIF18B_Q86Y91_437_SGPPPEHLPSSPLPPHPPSQPCTPELPAGPR (UniProt Q86Y91) | -0.236 | -0.226

Another view of some results above:

| Row | Target | probe-labelled cysteine peptide fold change (10 µM) | probe-labelled cysteine peptide fold change (50 µM) |
| --- | --- | --- | --- |
| 1 | ITPR1_Q14643_1394_MDENSPLMYHIHLVELLAVCTEGK (UniProt Q14643) | 0.39 | 0.358 |
| 2 | KCTD18_Q6PI47_234_VPHELIECWTLEERPLLGSLR (UniProt Q6PI47) | 0.0969 | 0.0679 |
